# According to PubChem BioAssay AID248 (DTP/NCI, 2004):
# The list shows only some results of the screen, not a fair sample: it is rich in T/C values a quarter to a half above the control, in often repeated tests (any T/C) and in doses without a T/C. Further doses and runs are listed elsewhere. T/C is the treated group as % of the vehicle group. Some entries give survivors of the animals treated and no T/C: the source holds a T/C of zero for them, seemingly a mark for toxic or unscored doses. Some survivor counts are full or nearly so, which does not show that the dose was tolerated: survival well below the control is almost never listed, so the zero probably covers shortened survival too. Survivors were counted at the toxicity check, usually on the fifth day, unless a day is given; later deaths do not show. Schedule codes are those of the source, read here as Q, the interval in days (D) or hours (H), X, the number of doses. Some schedule codes hold Z or #, which are not explained here.
# Test system: L1210 leukemia ip in BDF1 mice, survival T/C
# Assay: NCI In Vivo Anticancer Drug Screen. Data for tumor model L1210 Leukemia (intraperitoneal) in B6D2F1 (BDF1) mice
# Conditions: T/C endpoint: mean survival time, higher T/C = longer survival
# [1] = dose: 400.0 mg/kg/injection, schedule: Q04DX003 (ip), vehicle: saline
# [2] = dose: 400.0 mg/kg/injection, schedule: Q01DX009 (ip), vehicle: Klucel (hydroxypropylcellulose) (HPC)
# [3] = dose: 100.0 mg/kg/injection, schedule: Q04DX003 (ip), vehicle: saline
# [4] = dose: 200.0 mg/kg/injection, schedule: Q04DX003 (ip), vehicle: saline
structure (smiles),measurement,setting,value
O=C1N/C(=N\OCc2ccccc2)CC(NOCc2ccccc2)N1C1OC(CO)C(O)C1O (stereo not given),survivor count,[1],4 of 4
Cn1ccnc1CC(C)(O)c1ccccc1 (stereo not given),survivor count,"dose: 400.0 mg/kg/injection, schedule: Q01DX001 (ip), vehicle: Klucel (hydroxypropylcellulose) (HPC)",3 of 6
same,survivor count,[2],1 of 3
CCCCCCCCCC(=O)N/N=C/c1ccncc1,survivor count,[2],5 of 6
C#CCN1CCCC1,survivor count,[3],5 of 6
same,survivor count,[4],0 of 6
same,survivor count,[1],0 of 6
CN=C(N)N/N=C/C(C)=N/NC(N)=NC,survivor count,"dose: 240.0 mg/kg/injection, schedule: Q01DX Z (ip), vehicle: saline",0 of 6
same,survivor count,"dose: 480.0 mg/kg/injection, schedule: Q01DX Z (ip), vehicle: saline",0 of 6
CC1CC(=O)C2CC(Cl)CCC2(C)C1C (stereo not given),survivor count,"dose: 200.0 mg/kg/injection, schedule: Q04DX003 (ip), vehicle: saline with Tween-80",6 of 6
same,survivor count,"dose: 400.0 mg/kg/injection, schedule: Q04DX003 (ip), vehicle: saline with Tween-80",6 of 6
C[N+]1(C)Cc2ccccc2-c2ccccc2C1,survivor count,"dose: 50.0 mg/kg/injection, schedule: Q01DX009 (ip), vehicle: saline",5 of 6
same,survivor count,[3],0 of 6
same,survivor count,[4],0 of 6
same,survivor count,[1],0 of 6
